Reference: US20240165200A1, “CATH2 AND DERIVATIVES FOR INHIBITING STREPTOCOCCUS SUIS” (Universiteit Utrecht Holding B.V., priority 2021, published 2024)
Part of at least one peptide drawing is inferred or uncertain, most often the ends.

Columns and labels:
[1] = system: avian pathogenic E. coli; details: in ovo injection three days before hatch; cited from earlier work
[2] = system: S. suis P1/7; assay: In vivo infection experiment, prophylactic s.c. peptide; design: species or system mice
[3] = 24 h DC(1-21) treated vs untreated mice

Structure (SMILES)	protection of chickens for infection [1]	cumulative clinical score ([2]; 1 mg/kg s.c., infected 24 hours post peptide injection, late stage of disease)	cumulative clinical score ([2]; 1 mg/kg s.c., infected 7 days post peptide injection, acute phase of disease)	bodyweight lost ([2]; 1 mg/kg s.c., up to 48 hours post infection, infection 24 hours or 7 days post peptide, same in control mice)	number of organs in which bacteria could be found [2, 3]	total CFU counts [2, 3]	S. suis bacteria in the bloodstream ([2]; 24 hours post infection, all mice, treated or not)	effect on positive organs and total CFU counts ([2]; 7d DC(1-21) treated mice)	prophylactic protection of mice ([2]; administration 24 h and 7 days before infection with S. suis)	depletion of bacteria in the blood ([2]; after 7 days, 24 h DC(1-21) treated vs untreated)	amount of S. suis in the different organs ([2]; day 7, CFU per mg organ, treated vs untreated)	cells present in the peritoneal lavage ([2]; day 7, treated vs untreated)	spleen weight (enlargement) ([2]; day 7, treated vs untreated)	immune cells in the different organs ([2]; flow cytometry, treated vs untreated)
CC[C@@H](C)[C@@H](NC(=O)[C@@H](CCCCN)NC(=O)[C@@H](CCCNC(=N)N)NC(=O)[C@@H](CC(C)C)NC(=O)[C@@H](Cc1ccccc1)NC(=O)[C@@H](CCCNC(=N)N)NC(=O)CNC(=O)[C@@H](Cc1ccccc1)NC(=O)[C@H](N)CCCNC(=N)N)C(=O)N[C@H](CCCNC(=N)N)C(=O)N[C@H](CCCNC(=N)N)C(=O)N[C@H](Cc1ccccc1)C(=O)N[C@H](CCCNC(=N)N)C(=O)N1CCC[C@@H]1C(=O)N[C@H](CCCCN)C(=O)N[C@@H](C(=O)N[C@@H](C(=O)N[C@@H](C(=O)N[C@@H](C(=O)N[C@@H](C(=O)N[C@H](CCC(N)=O)C(=O)NCC(=O)N[C@H](CO)C(=O)N[C@H](C)C(=O)N[C@H](CCCNC(=N)N)C(=O)N[C@H](Cc1ccccc1)C(N)=O)[C@H](C)CC)[C@H](C)O)[C@H](C)CC)[C@H](C)O)C(C)C [D-CATH2]	protects the chickens up to 7 days post hatch	–	–	–	–	–	–	–	–	–	–	–	–	–
CC[C@@H](C)[C@@H](NC(=O)[C@@H](CCCCN)NC(=O)[C@@H](CCCNC(=N)N)NC(=O)[C@@H](CC(C)C)NC(=O)[C@@H](Cc1ccccc1)NC(=O)[C@@H](CCCNC(=N)N)NC(=O)CNC(=O)[C@@H](Cc1ccccc1)NC(=O)[C@H](N)CCCNC(=N)N)C(=O)N[C@H](CCCNC(=N)N)C(=O)N[C@H](CCCNC(=N)N)C(=O)N[C@H](Cc1ccccc1)C(=O)N[C@H](CCCNC(=N)N)C(=O)N1CCC[C@@H]1C(=O)N[C@H](CCCCN)C(=O)N[C@@H](C(=O)N[C@@H](C(=O)N[C@@H](C(=O)N[C@@H](C(=O)N[C@@H](C(=O)N[C@H](CCC(N)=O)C(N)=O)[C@H](C)CC)[C@H](C)O)[C@H](C)CC)[C@H](C)O)C(C)C [DC(1-21)]	–	small reduction	small reduction	around 8%	less positive organs	less total CFU counts	10^5-10^6 CFU mL^−1	not found	small prophylactic protection	more efficient	only minor differences	not different	no differences	no differences
